Patent US6730677B2, “Benzofurazan compounds which enhance AMPA receptor activity” (The Regents of the University of California, priority 1997, dated 2004)
For some of these results: At least one structure is not confirmed: it was looked up by name or label, or the drawing left a doubt. Some of these results come from one statement about several compounds together.

system: AMPA receptors; assay: Field EPSP amplitude in field CA1 of rat hippocampal slice (in vitro physiological testing); assay type: cell-based; conditions: not given
From the text: The field EPSP (excitory post-synaptic potential) recorded in field CA1 after stimulation of CA3 axons is known to be mediated by AMPA receptors, which are present in the synapses (Kessler et al., Brain Res. 560: 337-341 (1991)). Drugs that selectively block the receptor selectively block the field EPSP (Muller et al., Science, supra). […] These effects are mirrored in the field EPSP (see, for example, Staubli et al., Psychobiology, supra; Xiao et al., Hippocampus, supra; Staubli et al., Hippocampus 2:4958 (1992)).
To obtain the data shown in Table I, a bipolar nichrome stimulating electrode was positioned in the dendritic layer (stratum radiatum) of the hippocampal subfield CA1 close to the border of subfield CA3, as described in Example 21. Current pulses (0.1 msec) through the stimulating electrode activate a population of the Schaffer-commissural (SC) fibers, which arise from neurons in the subdivision CA3 and terminate in synapses on the dendrites of CA1 neurons. Activation of these synapses causes them to release the transmitter glutamate. Glutamate binds to the post-synaptic AMPA receptors which then transiently open an associated ion channel and permit a sodium current to enter the post-synaptic cell. This current results in a voltage in the extracellular space (the field EPSP), which is recorded by a high impedance recording electrode positioned in the middle of the stratum radiatum of CA1.
The intensity of the stimulation current was adjusted to produce half-maximal EPSPs (typically about 1.5-2.0 mV). Paired stimulation pulses were given every 40 sec with an interpulse interval of 200 msec, as described further in Example 21.
(§1) Hippocampal slices were maintained in a recording chamber continuously perfused with artificial cerebrospinal fluid (ACSF). During 15-30 minute intervals, the perfusion medium was switched to one containing various concentrations of the test compounds. Responses collected immediately before and at the end of drug perfusion were superimposed in order to calculate the percent increase in EPSP amplitude.
Invention compounds 1-9, as shown in FIG. 3 and Table I below, and reference compound CX516 (1-(quinoxalin-6-ylcarbonyl)piperidine), disclosed in PCT Pubn. No. WO 94/02475, were assayed in the physiological test system described above.
as §1, with “The physiological effects of invention compounds were tested in vitro with” for “Hippocampal”, “slices of rat hippocampus according to the following procedure. Excitatory responses (field EPSPs) were measured in hippocampal slices, which” for “slices”, “During a” for “During”, “interval,” for “intervals,”
To conduct these tests, the hippocampus was removed from anesthetized, 2 month old Sprague-Dawley rats and in vitro slices (400 micrometers thick) were prepared and maintained in an interface chamber at 35° C. using conventional techniques [see, for example, Dunwiddie and Lynch, J. Physiol. 276: 353-367 (1978)]. The chamber was constantly perfused at 0.5 mL/min with ACSF containing (in mM): NaCl 124, KCl 3, KH2PO4 1.25, MgSO42.5, CaCl2 3.4, NaHCO3 26, glucose 10 and L-ascorbate 2. A bipolar nichrome stimulating electrode was positioned in the dendritic layer (stratum radiatum) of the hippocampal subfield CA1 close to the border of subfield CA3.
Current pulses (0.1 msec) through the stimulating electrode activate a population of the Schaffer-commissural (SC) fibers which arise from neurons in the subdivision CA3 and terminate in synapses on the dendrites of CA1 neurons. Activation of these synapses causes them to release the transmitter glutamate. […]

Row | Structure (SMILES) | Effectiveness in increasing AMPA receptor function (in words)
1 | O=C(c1ccc2nonc2c1)N1CCCCC1 [Compound 2, 1-(Benzofurazan-5-ylcarbonyl)piperidine] | particularly effective
2 | O=C(c1ccc2nonc2c1)N1CCC(F)CC1 [Compound 4, 1-(Benzofurazan-5-ylcarbonyl)-4-fluoropiperidine] | particularly effective
3 | O=C(c1ccc2nonc2c1)N1CC=C(F)CC1 [Compound 6, 1-(Benzofurazan-5-ylcarbonyl)-1,2,3,6-tetrahydro-4-fluoropyridine] | particularly effective
4 | O=C(c1ccc2nonc2c1)N1CCOCC1 [Compound 7, 4-(Benzofurazan-5-ylcarbonyl)morpholine] | particularly effective
5 | N#CC1CCN(C(=O)c2ccc3nonc3c2)CC1 [Compound 8, 1-(Benzofurazan-5-ylcarbonyl)-4-cyanopiperidine] | particularly effective
6 | O=C(c1ccc2nonc2c1)N1CCC(O)CC1 [Compound 9, 1-(Benzofurazan-5-ylcarbonyl)-4-hydroxypiperidine] | particularly effective

system: brain AMPA receptors; assay: not given; conditions: cited from earlier work

Row | Structure (SMILES) | Concentration at which the drug works
7 | COc1ccc(C(=O)N2CCCC2=O)cc1 [aniracetam, N-anisoyl-2-pyrrolidinone] | approx. 1.0 mM
